Measurements from the supplement of paper PMC6078165.
The reference is the same well before dosing, and untreated signal decays as well.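 Labels refer to human fibroblasts, largely primary: uterine (C12385, HUF), lung (H6013), bone (Hs27A), adrenal (HADF), skin (WS1), plus mammary HMF and breast cancer-associated Hs343T. Cancer lines are basal-like or mesenchymal-like triple-negative breast cancer. The paper counts as hits responses shifting over 3x the replicate standard deviation. The tissue of the other fibroblasts is not given here.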

Test system: Hs578T
Assay: relative JC-1 red fluorescence (viability) vs pre-drug, coculture with fibroblast (fraction); higher = more viable cancer cells
Method: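 JC-1 labelled TNBC cells cocultured 1:1 (1,500 cells each) with CellTrace Violet stained primary or stromal fibroblasts in 384-well plates in FluoroBrite medium, treated with one of 42 anticancer drugs at 0.1, 1, 10 or 100 uM. JC-1 red fluorescence (mitochondrial integrity in cancer cells only) was read by plate reader every 8 h for 72 h. Values are normalised to each well's pre-drug value. The stock of one drug was tenfold lower, so its dose labels may be too high.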

O=NN(CCCl)C(=O)NCCCl [Carmustine]
relative JC-1 red fluorescence
Conditions | 8 h | 16 h | 24 h | 32 h | 40 h | 48 h | 56 h | 64 h | 72 h
10 µM | 0.92 | 0.822 | 0.76 | 0.712 | 0.647 | 0.603 | 0.566 | 0.527 | 0.51
100 µM | 0.851 | 0.7729 | 0.739 | 0.711 | 0.655 | 0.622 | 0.616 | 0.586 | 0.579

relative JC-1 red fluorescence
Conditions | 8 h | 16 h | 24 h | 32 h | 40 h | 48 h | 56 h | 64 h | 72 h
10 µM, coculture fibroblast: C12385 | 0.8208 | 0.726 | 0.6625 | 0.58 | 0.508 | 0.475 | 0.444 | 0.43 | 0.415
10 µM, coculture fibroblast: H6013 | 0.9014 | 0.83151 | 0.795 | 0.768 | 0.7387 | 0.725 | 0.706 | 0.701 | 0.67
10 µM, coculture fibroblast: H6019 | 0.7892 | 0.684 | 0.635 | 0.543 | 0.491 | 0.459 | 0.419 | 0.399 | 0.373
10 µM, coculture fibroblast: H6076 | 0.895 | 0.806 | 0.771 | 0.7641 | 0.732 | 0.746 | 0.729 | 0.732 | 0.747
10 µM, coculture fibroblast: H6231 | 0.8938 | 0.782 | 0.719 | 0.679 | 0.614 | 0.58 | 0.541 | 0.518 | 0.499
10 µM, coculture fibroblast: HADF | 0.91537 | 0.858 | 0.787 | 0.748 | 0.712 | 0.685 | 0.651 | 0.638 | 0.606
10 µM, coculture fibroblast: HCFa | 0.9 | 0.835 | 0.778 | 0.73 | 0.671 | 0.653 | 0.624 | 0.621 | 0.587
10 µM, coculture fibroblast: HCPF | 0.91915 | 0.8247 | 0.7473 | 0.714 | 0.652 | 0.626 | 0.598 | 0.556 | 0.538
10 µM, coculture fibroblast: HHSteC | 0.899 | 0.839 | 0.765 | 0.723 | 0.667 | 0.637 | 0.607 | 0.584 | 0.546
10 µM, coculture fibroblast: HMF | 0.9 | 0.81 | 0.745 | 0.7258 | 0.67 | 0.647 | 0.613 | 0.591 | 0.562
10 µM, coculture fibroblast: HPFa | 0.92083 | 0.825 | 0.75 | 0.684 | 0.632 | 0.588 | 0.541 | 0.514 | 0.46
10 µM, coculture fibroblast: HUF | 0.872 | 0.783 | 0.725 | 0.616 | 0.557 | 0.521 | 0.485 | 0.485 | 0.471
10 µM, coculture fibroblast: Hs27A | 0.878 | 0.841 | 0.81 | 0.77 | 0.716 | 0.699 | 0.662 | 0.653 | 0.608
10 µM, coculture fibroblast: Hs343T | 0.90097 | 0.795 | 0.745 | 0.723 | 0.662 | 0.64 | 0.587 | 0.561 | 0.548
10 µM, coculture fibroblast: WS1 | 0.8206 | 0.703 | 0.66 | 0.569 | 0.513 | 0.494 | 0.456 | 0.443 | 0.42
100 µM, coculture fibroblast: C12385 | 0.8049 | 0.728 | 0.698 | 0.603 | 0.544 | 0.516 | 0.489 | 0.485 | 0.483
100 µM, coculture fibroblast: H6013 | 0.8126 | 0.7524 | 0.709 | 0.666 | 0.646 | 0.639 | 0.62 | 0.627 | 0.607
100 µM, coculture fibroblast: H6019 | 0.745 | 0.661 | 0.638 | 0.545 | 0.51 | 0.499 | 0.472 | 0.451 | 0.422
100 µM, coculture fibroblast: H6076 | 0.857 | 0.7976 | 0.766 | 0.764 | 0.731 | 0.74 | 0.752 | 0.763 | 0.78
100 µM, coculture fibroblast: H6231 | 0.872 | 0.8233 | 0.791 | 0.77 | 0.735 | 0.732 | 0.725 | 0.713 | 0.719
100 µM, coculture fibroblast: HADF | 0.905 | 0.879 | 0.8366 | 0.7989 | 0.77762 | 0.7675 | 0.7396 | 0.7397 | 0.7184
100 µM, coculture fibroblast: HCFa | 0.8505 | 0.809 | 0.752 | 0.698 | 0.643 | 0.624 | 0.593 | 0.577 | 0.56
100 µM, coculture fibroblast: HCPF | 0.883 | 0.795 | 0.755 | 0.719 | 0.649 | 0.622 | 0.611 | 0.568 | 0.5456
100 µM, coculture fibroblast: HHSteC | 0.8362 | 0.77 | 0.721 | 0.674 | 0.641 | 0.608 | 0.588 | 0.577 | 0.549
100 µM, coculture fibroblast: HMF | 0.8657 | 0.7724 | 0.711 | 0.67 | 0.609 | 0.58 | 0.552 | 0.526 | 0.504
100 µM, coculture fibroblast: HPFa | 0.882 | 0.806 | 0.723 | 0.653 | 0.615 | 0.583 | 0.536 | 0.514 | 0.475
100 µM, coculture fibroblast: HUF | 0.8055 | 0.686 | 0.654 | 0.549 | 0.494 | 0.466 | 0.446 | 0.4438 | 0.4438
100 µM, coculture fibroblast: Hs27A | 0.85 | 0.84 | 0.809 | 0.758 | 0.715 | 0.716 | 0.681 | 0.681 | 0.64
100 µM, coculture fibroblast: Hs343T | 0.868 | 0.769 | 0.728 | 0.716 | 0.642 | 0.618 | 0.581 | 0.557 | 0.538
100 µM, coculture fibroblast: WS1 | 0.7519 | 0.6547 | 0.62 | 0.517 | 0.465 | 0.452 | 0.432 | 0.437 | 0.435
